No constants are given. Whether binding was seen depends on the method and setting. Binding seen in cells or lysates may run through a third protein. Some binding calls cover weakened binding; strength is not graded here.
Biological target: GFP-ZNF432 (expressed in HeLa cells) (human) (UniProt O94892)
Test: pull-down; GFP-trap agarose beads on lysate of HeLa cells transfected with GFP-ZNF432, 10 Gy irradiation and 15 min recovery; 50 mM Tris-HCl pH 7.5, 150 mM NaCl, 0.5% NP-40, Benzonase 25 U/ml, 4°C for 4 h; Western blot

Sequences of proteins named here, by UniProt entry; tags and fusion partners are left off.
UniProt O94892: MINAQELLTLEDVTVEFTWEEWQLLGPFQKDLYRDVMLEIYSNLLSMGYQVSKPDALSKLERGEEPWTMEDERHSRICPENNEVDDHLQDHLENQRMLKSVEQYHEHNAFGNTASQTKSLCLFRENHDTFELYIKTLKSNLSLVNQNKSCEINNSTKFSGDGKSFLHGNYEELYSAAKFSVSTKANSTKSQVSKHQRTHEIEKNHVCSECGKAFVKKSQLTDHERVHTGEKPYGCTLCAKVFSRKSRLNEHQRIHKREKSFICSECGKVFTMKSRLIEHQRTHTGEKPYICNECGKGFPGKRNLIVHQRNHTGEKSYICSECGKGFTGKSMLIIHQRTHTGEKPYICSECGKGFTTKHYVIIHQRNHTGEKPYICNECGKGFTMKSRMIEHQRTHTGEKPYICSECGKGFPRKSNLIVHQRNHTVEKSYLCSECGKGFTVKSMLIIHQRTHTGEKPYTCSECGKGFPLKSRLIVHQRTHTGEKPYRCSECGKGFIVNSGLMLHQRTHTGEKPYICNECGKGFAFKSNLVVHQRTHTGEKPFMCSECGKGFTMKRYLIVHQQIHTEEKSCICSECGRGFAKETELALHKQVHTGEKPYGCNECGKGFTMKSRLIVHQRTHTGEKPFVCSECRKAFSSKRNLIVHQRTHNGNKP
UniProt P09874: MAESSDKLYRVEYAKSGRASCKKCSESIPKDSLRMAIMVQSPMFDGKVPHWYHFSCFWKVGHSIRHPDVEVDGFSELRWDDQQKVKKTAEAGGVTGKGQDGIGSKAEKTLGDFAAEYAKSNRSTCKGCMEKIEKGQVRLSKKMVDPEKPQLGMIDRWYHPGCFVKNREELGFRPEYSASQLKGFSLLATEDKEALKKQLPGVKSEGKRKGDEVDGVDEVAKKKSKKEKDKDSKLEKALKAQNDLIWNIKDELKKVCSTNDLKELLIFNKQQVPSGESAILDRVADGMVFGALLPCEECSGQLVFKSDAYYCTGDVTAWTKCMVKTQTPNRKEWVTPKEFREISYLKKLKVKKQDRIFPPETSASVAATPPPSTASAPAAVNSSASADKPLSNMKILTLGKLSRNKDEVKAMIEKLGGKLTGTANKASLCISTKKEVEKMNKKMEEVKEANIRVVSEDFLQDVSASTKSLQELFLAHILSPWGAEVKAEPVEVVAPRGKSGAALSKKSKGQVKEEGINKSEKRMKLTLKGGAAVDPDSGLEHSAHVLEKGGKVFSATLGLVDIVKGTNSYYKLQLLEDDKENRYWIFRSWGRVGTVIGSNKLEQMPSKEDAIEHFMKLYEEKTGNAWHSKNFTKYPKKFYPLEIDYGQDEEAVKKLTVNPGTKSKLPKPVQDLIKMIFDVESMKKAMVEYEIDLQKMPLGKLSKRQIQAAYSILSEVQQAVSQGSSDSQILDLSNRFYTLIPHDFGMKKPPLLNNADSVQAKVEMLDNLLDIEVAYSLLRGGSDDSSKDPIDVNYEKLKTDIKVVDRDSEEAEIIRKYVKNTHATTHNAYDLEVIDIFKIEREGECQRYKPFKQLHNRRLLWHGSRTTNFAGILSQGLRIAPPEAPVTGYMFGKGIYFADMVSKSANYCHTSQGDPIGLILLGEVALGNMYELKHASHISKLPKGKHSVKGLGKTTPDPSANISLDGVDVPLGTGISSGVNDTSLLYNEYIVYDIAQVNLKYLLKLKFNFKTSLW

binding: binds
Substance: poly(ADP-ribose) polymerase-1 (endogenous, HeLa) (from UniProt P09874 1-1014)

— paper PMC10639050, “ZNF432 stimulates PARylation and inhibits DNA resection to balance PARPi sensitivity and resistance”
